Laboratory results: PubChem BioAssay AID1053208 (Peter MacCallum Cancer Centre, 2014)
The whole screen tested about 17,000 reagents; below is an unselected part. Of all reagents, 788 (4.7%) are marked active. 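Calls rest on z-score classes alone; an extra cut-off of viability at most 70% of control was not applied to them.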 Reagents against one gene are numbered here. Further read-outs or replicates are left out here. Reagent sequences are not shown.

Test: 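Synthetic lethal interactions between gene loss and doxorubicin in osteosarcoma cells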 (primary screen)
Cell system: mouse osteosarcoma cells, early-passage culture from an engineered mouse model of fibroblastic bone tumour
Reagents: siRNA pool against mouse genes, 40 nM
Duration: about 120 h (48 h before drug, then 72 h with drug)
Challenge: doxorubicin 100 nM for 72 h, roughly 30-40% inhibitory dose
Read-out: 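Luminescent ATP signal taken as viability with or without 100 nM doxorubicin for 72 h; mean of two wells set against non-targeting siRNA and turned into robust z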
Direction: viability z-score with doxorubicin: higher = more viable cells under doxorubicin; viability z-score without drug: higher = more viable cells with knock-down alone
Hit rule: 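a pool counts as active when its viability z-score with doxorubicin is -2 or below and its z-score without drug lies between -2 and 2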

Os9 | combined z-score class: no change with or without drug; viability z-score with doxorubicin: 0.9; viability z-score without drug: 1.35; call: inactive
Scrib | combined z-score class: no change with or without drug; viability z-score with doxorubicin: 0.79; viability z-score without drug: -0.51; call: inactive
Acer2 #1 | combined z-score class: no change with or without drug; viability z-score with doxorubicin: 0.34; viability z-score without drug: 1.18; call: inactive
Acer2 #2 | combined z-score class: no change with or without drug; viability z-score with doxorubicin: 0; viability z-score without drug: 0.67; call: inactive
Aatk | combined z-score class: no change with or without drug; viability z-score with doxorubicin: 0.22; viability z-score without drug: 0.84; call: inactive
Gpr160 | combined z-score class: no change with or without drug; viability z-score with doxorubicin: -0.79; viability z-score without drug: -0.67; call: inactive
Lrrc24 | combined z-score class: high cell count without drug only; viability z-score with doxorubicin: 1.46; viability z-score without drug: 2.19; call: inactive
Kirrel2 | combined z-score class: no change with or without drug; viability z-score with doxorubicin: -0.45; viability z-score without drug: 0.17; call: inactive
Otud6b | combined z-score class: no change with or without drug; viability z-score with doxorubicin: 0.22; viability z-score without drug: 0.84; call: inactive
Ruvbl2 | combined z-score class: no change with or without drug; viability z-score with doxorubicin: -1.12; viability z-score without drug: 0.51; call: inactive
Pla2g4b | combined z-score class: no change with or without drug; viability z-score with doxorubicin: 0; viability z-score without drug: 1.35; call: inactive
Arl3 | combined z-score class: no change with or without drug; viability z-score with doxorubicin: 0.9; viability z-score without drug: -0.51; call: inactive
Arx | combined z-score class: high cell count with doxorubicin only; viability z-score with doxorubicin: 3.6; viability z-score without drug: 1.18; call: inactive
Slc71a2 | combined z-score class: no change with or without drug; viability z-score with doxorubicin: -0.22; viability z-score without drug: 0; call: inactive
Rpp14 | combined z-score class: no change with or without drug; viability z-score with doxorubicin: -1.46; viability z-score without drug: -1.52; call: inactive
Gpd1l | combined z-score class: no change with or without drug; viability z-score with doxorubicin: 0.67; viability z-score without drug: 0.84; call: inactive
Gabra4 | combined z-score class: no change with or without drug; viability z-score with doxorubicin: 0; viability z-score without drug: -0.17; call: inactive
Mdm4 | combined z-score class: no change with or without drug; viability z-score with doxorubicin: 1.8; viability z-score without drug: 1.18; call: inactive
Sema4d | combined z-score class: no change with or without drug; viability z-score with doxorubicin: 0; viability z-score without drug: 0.17; call: inactive
Mms19 | combined z-score class: low cell count without drug only; viability z-score with doxorubicin: -1.35; viability z-score without drug: -2.19; call: inactive
Blcap | combined z-score class: no change with or without drug; viability z-score with doxorubicin: 0.45; viability z-score without drug: 0.17; call: inactive
Casp2 | combined z-score class: no change with or without drug; viability z-score with doxorubicin: 0.56; viability z-score without drug: -0.17; call: inactive
Nme3 | combined z-score class: no change with or without drug; viability z-score with doxorubicin: -0.11; viability z-score without drug: 0.51; call: inactive
Sst | combined z-score class: no change with or without drug; viability z-score with doxorubicin: 1.57; viability z-score without drug: -0.17; call: inactive
Plcz1 | combined z-score class: no change with or without drug; viability z-score with doxorubicin: -0.67; viability z-score without drug: -0.17; call: inactive
Aspdh | combined z-score class: no change with or without drug; viability z-score with doxorubicin: -0.22; viability z-score without drug: 0.17; call: inactive
Ctu1 | combined z-score class: no change with or without drug; viability z-score with doxorubicin: -1.8; viability z-score without drug: -1.52; call: inactive
Cnksr1 | combined z-score class: no change with or without drug; viability z-score with doxorubicin: -1.12; viability z-score without drug: -0.17; call: inactive
